Variants at the background level are over-represented here.

One series relates to biotinyl-Leu-oxazolone. Description: self-aminoacylation, catalytic enhancement (BLO) (fold over background); higher = more active; k-Seq, kA / k0A0; sequences stand for … in GGGAAUGGAUCCACAUCUACGAAUUC…UUCACUGCAGACUUGACGAAGCUG
Summed up: (§1)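 Catalytic enhancement equals the median kA over the uncatalyzed rate, the latter read from the low-activity peak of a bimodal Gaussian fit. Values of kA came from fitting each sequence's fraction reacted to a pseudo-first-order model, with 1000 bootstraps. Reacted RNA was captured with streptavidin and quantified by triplicate qPCR and Illumina sequencing after 90 minutes at room temperature with 2–1250 μM biotinyl-aminoacyl-oxazolone and 0.43 μM mutagenized RNA pools bearing a 21-nt variable region.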

The test system of another series is biotinyl-Ile-oxazolone. Put plainly: self-aminoacylation, catalytic enhancement (BIO) (fold over background); higher = more active; k-Seq, kA / k0A0; sequences stand for … in GGGAAUGGAUCCACAUCUACGAAUUC…UUCACUGCAGACUUGACGAAGCUG
In short, it runs like this:
as §1

A further series relates to biotinyl-Met-oxazolone. Put plainly: self-aminoacylation, catalytic enhancement (BMO) (fold over background); higher = more active; k-Seq, kA / k0A0; sequences stand for … in GGGAAUGGAUCCACAUCUACGAAUUC…UUCACUGCAGACUUGACGAAGCUG
Summed up: as §1

The next series relates to biotinyl-Trp-oxazolone. Put plainly: self-aminoacylation, catalytic enhancement (BWO) (fold over background); higher = more active; k-Seq, kA / k0A0; sequences stand for … in GGGAAUGGAUCCACAUCUACGAAUUC…UUCACUGCAGACUUGACGAAGCUG
In short, it runs like this:
as §1

For the next series, the system named is biotinyl-Phe-oxazolone. Description: self-aminoacylation, catalytic enhancement (BFO) (fold over background); higher = more active; k-Seq, kA / k0A0; sequences stand for … in GGGAAUGGAUCCACAUCUACGAAUUC…UUCACUGCAGACUUGACGAAGCUG
Summed up: as §1

The subject of a further series is biotinyl-Val-oxazolone. Description: self-aminoacylation, catalytic enhancement (BVO) (fold over background); higher = more active; k-Seq, kA / k0A0; sequences stand for … in GGGAAUGGAUCCACAUCUACGAAUUC…UUCACUGCAGACUUGACGAAGCUG
Summed up: as §1

With “CUACGUCAACCAAUCGGUCUG [Fam1A.1 aminoacylation ribozyme variant]”, the self-aminoacylation turned out to be 1.12 in the series on biotinyl-Leu-oxazolone; 1.17 with biotinyl-Ile-oxazolone; 1.14 in the series on biotinyl-Met-oxazolone; 1.23 in the series on biotinyl-Trp-oxazolone; 3.4 in the series with biotinyl-Phe-oxazolone; 1.4 with biotinyl-Val-oxazolone.
For “AUUGCCAUGGUCAUCGAGUGA [Fam2.1 aminoacylation ribozyme variant]”, the self-aminoacylation in the series on biotinyl-Leu-oxazolone was determined as 10.1; in the series with biotinyl-Ile-oxazolone, 4.75; in the series on biotinyl-Met-oxazolone it was 9.29; with biotinyl-Trp-oxazolone, 11.6; with biotinyl-Phe-oxazolone it was 53.5; in the series on biotinyl-Val-oxazolone, 4.81.
With “AAGUUUGCUCCUAGUCGCAAG [Fam3.1 aminoacylation ribozyme variant]”, the self-aminoacylation in the series on biotinyl-Leu-oxazolone was found to be 0.802; with biotinyl-Ile-oxazolone, 1.03; with biotinyl-Met-oxazolone it was 0.984; in the series with biotinyl-Trp-oxazolone, 1.15; in the series with biotinyl-Phe-oxazolone it was 0.939; in the series on biotinyl-Val-oxazolone, 0.851.
For the sequence “AUUACCCGGGUCAGCGAGUGA [Fam2.1 aminoacylation ribozyme variant]”, the self-aminoacylation in the series with biotinyl-Leu-oxazolone stood at 7.97; in the series with biotinyl-Ile-oxazolone it was 5.75; with biotinyl-Met-oxazolone, 8.03; in the series with biotinyl-Trp-oxazolone, 10.2; in the series with biotinyl-Phe-oxazolone it was 55.5; in the series with biotinyl-Val-oxazolone, 5.24.
Regarding “CCACACGUCAAGCGAUCGGUC [Fam1B.1 aminoacylation ribozyme variant]”, the self-aminoacylation is 1.11 with biotinyl-Leu-oxazolone; 1.21 with biotinyl-Ile-oxazolone; 1.14 in the series with biotinyl-Met-oxazolone; 1.61 with biotinyl-Trp-oxazolone; 1.06 with biotinyl-Phe-oxazolone; 2.3 with biotinyl-Val-oxazolone.
Regarding “CUACUUCAAACAACCGGACUG [Fam1A.1 aminoacylation ribozyme variant]”, the self-aminoacylation in the series with biotinyl-Leu-oxazolone was found to be 0.7; in the series with biotinyl-Ile-oxazolone, 0.99; in the series with biotinyl-Met-oxazolone, 0.791; in the series with biotinyl-Trp-oxazolone, 0.51; with biotinyl-Phe-oxazolone it was 1.11; in the series with biotinyl-Val-oxazolone, 0.855.
Take “CCACACUUCGAGCUAUCGGUC [Fam1B.1 aminoacylation ribozyme variant]”: the self-aminoacylation turned out to be 0.991 in the series with biotinyl-Leu-oxazolone; 0.892 in the series with biotinyl-Ile-oxazolone; 0.778 in the series with biotinyl-Met-oxazolone; 0.718 in the series with biotinyl-Trp-oxazolone; 0.728 in the series with biotinyl-Phe-oxazolone; 0.999 in the series with biotinyl-Val-oxazolone.
Regarding “CCACACGUCAAGUAAUCGGUC [Fam1B.1 aminoacylation ribozyme variant]”, the self-aminoacylation was determined as 0.992 with biotinyl-Leu-oxazolone; 0.93 with biotinyl-Ile-oxazolone; 0.957 with biotinyl-Met-oxazolone; 0.752 with biotinyl-Trp-oxazolone; 0.888 with biotinyl-Phe-oxazolone; 1.16 in the series with biotinyl-Val-oxazolone.
Regarding “CCACACUUCAAGCAAGAGGUC [Fam1B.1 aminoacylation ribozyme variant]”, the self-aminoacylation in the series with biotinyl-Leu-oxazolone is 0.588; in the series on biotinyl-Ile-oxazolone, 0.647; with biotinyl-Met-oxazolone, 0.62; with biotinyl-Trp-oxazolone it was 0.459; in the series on biotinyl-Phe-oxazolone, 0.639; in the series on biotinyl-Val-oxazolone, 0.579.
As to “AAGUUUGCUCAUAGUCGCAUG [Fam3.1 aminoacylation ribozyme variant]”, the self-aminoacylation in the series with biotinyl-Leu-oxazolone was found to be 0.903; in the series with biotinyl-Ile-oxazolone it was 1.05; in the series with biotinyl-Met-oxazolone, 0.893; in the series with biotinyl-Trp-oxazolone, 0.856; in the series with biotinyl-Phe-oxazolone, 0.909; in the series with biotinyl-Val-oxazolone, 1.04.
For the sequence “AUUCCCCUAGGUCAUCGGGAG [Fam2.2 aminoacylation ribozyme variant]”, the self-aminoacylation with biotinyl-Leu-oxazolone came out at 9.02; in the series with biotinyl-Ile-oxazolone it was 6.89; in the series with biotinyl-Met-oxazolone, 8.27; in the series with biotinyl-Trp-oxazolone it was 8.9; with biotinyl-Phe-oxazolone, 19.4; in the series on biotinyl-Val-oxazolone, 6.76.
As to “UUCACCCUGGUCAUCGAGUGA [Fam2.1 aminoacylation ribozyme variant]”, the self-aminoacylation in the series on biotinyl-Leu-oxazolone stood at 10.6; in the series with biotinyl-Ile-oxazolone, 5.88; with biotinyl-Met-oxazolone, 11.3; with biotinyl-Trp-oxazolone it was 12.7; in the series on biotinyl-Phe-oxazolone, 13.2; in the series with biotinyl-Val-oxazolone, 6.29.
In the case of “AUUACCCUCGUCAUCGAGCGA [Fam2.1 aminoacylation ribozyme variant]”, the self-aminoacylation in the series on biotinyl-Leu-oxazolone worked out at 1.51; with biotinyl-Ile-oxazolone it was 1.29; with biotinyl-Met-oxazolone, 1.41; in the series with biotinyl-Trp-oxazolone, 0.625; in the series on biotinyl-Phe-oxazolone it was 0.457; in the series on biotinyl-Val-oxazolone, 1.12.
“CCAUACUUCAGGCAAUCGGUC [Fam1B.1 aminoacylation ribozyme variant]”: the self-aminoacylation in the series with biotinyl-Leu-oxazolone came out at 1.06; in the series with biotinyl-Ile-oxazolone, 1.22; in the series on biotinyl-Met-oxazolone, 1.21; in the series on biotinyl-Trp-oxazolone it was 1.22; with biotinyl-Phe-oxazolone, 0.733; in the series on biotinyl-Val-oxazolone it was 1.21.
For the sequence “AAGUUUGAUAAUAGUCGCAAG [Fam3.1 aminoacylation ribozyme variant]”, the self-aminoacylation with biotinyl-Leu-oxazolone was determined as 0.915; in the series with biotinyl-Ile-oxazolone, 1.04; in the series with biotinyl-Met-oxazolone it was 0.929; with biotinyl-Trp-oxazolone, 1.03; in the series with biotinyl-Phe-oxazolone, 1.75; in the series on biotinyl-Val-oxazolone it was 0.952.
Take “AUUAGCCUGGUCAUCGAGUCA [Fam2.1 aminoacylation ribozyme variant]”: the self-aminoacylation in the series with biotinyl-Leu-oxazolone worked out at 0.798; in the series with biotinyl-Ile-oxazolone, 0.947; in the series with biotinyl-Met-oxazolone, 0.901; in the series with biotinyl-Trp-oxazolone it was 0.952; in the series on biotinyl-Phe-oxazolone it was 0.57; in the series with biotinyl-Val-oxazolone it was 1.
In the case of “AAAUUUGAUAAUAGUCGCAAG [Fam3.1 aminoacylation ribozyme variant]”, the self-aminoacylation in the series with biotinyl-Leu-oxazolone is 1.48; in the series on biotinyl-Ile-oxazolone it was 1.68; in the series on biotinyl-Met-oxazolone it was 1.67; with biotinyl-Trp-oxazolone it was 1.42; with biotinyl-Phe-oxazolone, 1.83; in the series with biotinyl-Val-oxazolone, 1.47.
In the case of “AUUCACCUAGGUCAAAGGGUG [Fam2.2 aminoacylation ribozyme variant]”, the self-aminoacylation is 1.62 in the series on biotinyl-Leu-oxazolone; 1.23 in the series on biotinyl-Ile-oxazolone; 1.31 with biotinyl-Met-oxazolone; 1.64 with biotinyl-Trp-oxazolone; 1.9 in the series with biotinyl-Phe-oxazolone; 1.23 in the series with biotinyl-Val-oxazolone.
Regarding “AAAUUUGCUAUUAGUCGCAAG [Fam3.1 aminoacylation ribozyme variant]”, the self-aminoacylation was determined as 1.72 in the series on biotinyl-Leu-oxazolone; 1.88 with biotinyl-Ile-oxazolone; 1.72 in the series on biotinyl-Met-oxazolone; 1.68 in the series on biotinyl-Trp-oxazolone; 1.57 in the series on biotinyl-Phe-oxazolone; 1.54 in the series with biotinyl-Val-oxazolone.
Regarding “GUUCACCUAGGUCAUCGCGUG [Fam2.2 aminoacylation ribozyme variant]”, the self-aminoacylation with biotinyl-Leu-oxazolone was found to be 15; in the series on biotinyl-Ile-oxazolone, 6.72; with biotinyl-Met-oxazolone, 10.5; in the series on biotinyl-Trp-oxazolone, 10.6; in the series with biotinyl-Phe-oxazolone it was 96.1; in the series with biotinyl-Val-oxazolone it was 6.96.
In the case of “CUACUUCAAACAAUAGGUUUG [Fam1A.1 aminoacylation ribozyme variant]”, the self-aminoacylation with biotinyl-Leu-oxazolone was 0.749; in the series on biotinyl-Ile-oxazolone, 0.789; in the series with biotinyl-Met-oxazolone, 0.583; in the series on biotinyl-Trp-oxazolone, 0.528; in the series with biotinyl-Phe-oxazolone, 0.819; with biotinyl-Val-oxazolone, 0.686.

Source of the values: the supplement of paper PMC9233669.
